Experimental data from article doi:10.1101/2023.06.01.543083.
Where two headings read alike, the source gives them in different places. These are yes or no findings as the source states them, for the method shown. Some binding calls cover weakened binding; strength is not graded here.

What was measured:
Assay in all cases: mass photometry
[1] = biological target: T1, E. coli Vitamin B12 ABC transporter BtuCD reconstituted in peptidiscs (E. coli) (UniProt P06609+P06611)
T1 sequence 1: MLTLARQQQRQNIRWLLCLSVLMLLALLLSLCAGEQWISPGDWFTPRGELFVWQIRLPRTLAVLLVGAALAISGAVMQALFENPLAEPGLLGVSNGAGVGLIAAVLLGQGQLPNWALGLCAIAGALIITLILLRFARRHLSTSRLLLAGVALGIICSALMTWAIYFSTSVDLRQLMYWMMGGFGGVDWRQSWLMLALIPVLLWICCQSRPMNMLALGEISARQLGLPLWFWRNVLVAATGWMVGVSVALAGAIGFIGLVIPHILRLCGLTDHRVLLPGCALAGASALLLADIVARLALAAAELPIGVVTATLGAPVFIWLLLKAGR
T1 sequence 2: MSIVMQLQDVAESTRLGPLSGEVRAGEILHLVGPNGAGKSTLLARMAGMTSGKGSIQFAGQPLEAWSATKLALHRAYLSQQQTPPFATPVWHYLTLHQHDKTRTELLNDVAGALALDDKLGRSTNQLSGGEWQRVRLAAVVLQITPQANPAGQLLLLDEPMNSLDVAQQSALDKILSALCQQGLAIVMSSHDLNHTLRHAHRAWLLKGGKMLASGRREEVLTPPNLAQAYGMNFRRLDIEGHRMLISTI

[2] = biological target: T1, E. coli Vitamin B12 ABC transporter BtuCD reconstituted in peptidiscs (E. coli); remark: listed apart in the source
[3] = biological target: T2, E. coli aquaporin AqpZ reconstituted in peptidiscs (E. coli), P60844; details: remark: other sources report otherwise
T2 chain: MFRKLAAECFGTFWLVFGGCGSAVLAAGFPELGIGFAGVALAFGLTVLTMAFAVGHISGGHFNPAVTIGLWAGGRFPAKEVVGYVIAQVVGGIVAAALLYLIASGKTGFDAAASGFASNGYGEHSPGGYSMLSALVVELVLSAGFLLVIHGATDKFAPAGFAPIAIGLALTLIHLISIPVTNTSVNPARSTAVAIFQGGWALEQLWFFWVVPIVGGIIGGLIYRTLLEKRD

B1: periplasmic B12 binding protein BtuF (protein, UniProt P37028 23-266)
chain: APRVITLSPANTELAFAAGITPVGVSSYSDYPPQAQKIEQVSTWQGMNLERIVALKPDLVIAWRGGNAERQVDQLASLGIKVMWVDATSIEQIANALRQLAPWSPQPDKAEQAAQSLLDQYAQLKAQYADKPKKRVFLQFGINPPFTSGKESIQNQVLEVCGGENIFKDSRVPWPQVSREQVLARSPQAIVITGGPDQIPKIKQYWGEQLKIPVIPLTSDWFERASPRIILAAQQLCNALSQVD
binding [1]: binds
binding [2]: binds

B2: E. coli aquaporin AqpZ reconstituted in peptidiscs, P60844 1-231 (protein)
chain: T2 chain
binding [3]: no binding
